Article PMC3349648
Results are given in words; binding and its absence hold for the method and conditions named. Binding seen in cells or lysates may run through a third protein. Some results given as binding are weak or reduced against the parent protein; the word gives no strength.

Chains of the proteins cited; added tags and fusions are not shown. Residues count along the entry.
UniProt Q92542, residues 34-709: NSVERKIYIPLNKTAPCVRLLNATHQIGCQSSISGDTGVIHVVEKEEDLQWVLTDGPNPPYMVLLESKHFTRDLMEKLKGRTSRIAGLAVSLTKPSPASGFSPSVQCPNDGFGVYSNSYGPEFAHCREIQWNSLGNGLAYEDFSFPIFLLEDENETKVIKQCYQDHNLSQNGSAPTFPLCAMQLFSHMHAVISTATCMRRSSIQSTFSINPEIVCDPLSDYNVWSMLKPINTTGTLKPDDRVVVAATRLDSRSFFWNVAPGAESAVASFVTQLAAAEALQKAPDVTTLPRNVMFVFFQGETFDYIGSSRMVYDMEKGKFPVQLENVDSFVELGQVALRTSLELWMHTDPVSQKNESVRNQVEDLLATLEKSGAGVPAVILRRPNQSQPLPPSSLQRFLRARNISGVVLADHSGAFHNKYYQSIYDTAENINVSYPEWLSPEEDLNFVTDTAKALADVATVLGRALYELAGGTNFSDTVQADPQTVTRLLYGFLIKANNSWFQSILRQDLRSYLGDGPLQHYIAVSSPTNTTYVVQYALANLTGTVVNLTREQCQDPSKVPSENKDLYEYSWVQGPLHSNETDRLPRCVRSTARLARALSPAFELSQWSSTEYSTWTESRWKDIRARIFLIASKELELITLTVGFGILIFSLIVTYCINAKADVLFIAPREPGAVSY
UniProt O00141: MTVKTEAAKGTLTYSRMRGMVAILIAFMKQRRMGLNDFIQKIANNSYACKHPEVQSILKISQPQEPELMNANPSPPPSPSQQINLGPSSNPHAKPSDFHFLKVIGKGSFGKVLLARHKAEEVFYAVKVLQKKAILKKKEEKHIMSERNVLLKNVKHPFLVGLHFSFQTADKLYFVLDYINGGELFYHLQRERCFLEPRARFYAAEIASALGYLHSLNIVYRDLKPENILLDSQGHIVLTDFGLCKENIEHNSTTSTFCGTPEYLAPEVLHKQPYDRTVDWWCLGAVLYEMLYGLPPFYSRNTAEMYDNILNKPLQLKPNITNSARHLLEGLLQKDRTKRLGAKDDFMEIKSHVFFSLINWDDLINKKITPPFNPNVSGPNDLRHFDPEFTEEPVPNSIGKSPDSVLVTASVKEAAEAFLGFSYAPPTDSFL
UniProt Q06226: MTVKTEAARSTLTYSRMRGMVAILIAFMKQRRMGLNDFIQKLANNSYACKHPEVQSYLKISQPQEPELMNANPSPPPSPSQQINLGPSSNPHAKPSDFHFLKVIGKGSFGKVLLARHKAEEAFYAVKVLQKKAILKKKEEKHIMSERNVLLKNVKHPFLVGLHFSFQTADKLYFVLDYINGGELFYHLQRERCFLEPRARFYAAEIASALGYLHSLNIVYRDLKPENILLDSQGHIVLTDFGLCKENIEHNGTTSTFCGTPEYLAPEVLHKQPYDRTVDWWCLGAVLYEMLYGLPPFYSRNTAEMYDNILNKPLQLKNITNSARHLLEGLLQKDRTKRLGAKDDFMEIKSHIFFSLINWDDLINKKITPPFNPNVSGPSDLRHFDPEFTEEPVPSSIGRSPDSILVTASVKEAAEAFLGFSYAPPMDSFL
UniProt Q9WVC6: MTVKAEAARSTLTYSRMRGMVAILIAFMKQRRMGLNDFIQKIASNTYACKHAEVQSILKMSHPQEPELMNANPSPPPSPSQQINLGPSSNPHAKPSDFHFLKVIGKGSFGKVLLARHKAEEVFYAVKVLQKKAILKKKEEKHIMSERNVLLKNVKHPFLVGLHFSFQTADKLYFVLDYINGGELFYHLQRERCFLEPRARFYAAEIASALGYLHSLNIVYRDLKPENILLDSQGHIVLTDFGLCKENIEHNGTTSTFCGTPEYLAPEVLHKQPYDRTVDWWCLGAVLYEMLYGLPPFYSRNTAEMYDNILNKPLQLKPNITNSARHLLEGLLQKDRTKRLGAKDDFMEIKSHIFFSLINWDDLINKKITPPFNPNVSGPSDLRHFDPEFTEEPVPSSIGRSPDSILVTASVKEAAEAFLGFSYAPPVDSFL
UniProt Q8CGU6, residues 35-708: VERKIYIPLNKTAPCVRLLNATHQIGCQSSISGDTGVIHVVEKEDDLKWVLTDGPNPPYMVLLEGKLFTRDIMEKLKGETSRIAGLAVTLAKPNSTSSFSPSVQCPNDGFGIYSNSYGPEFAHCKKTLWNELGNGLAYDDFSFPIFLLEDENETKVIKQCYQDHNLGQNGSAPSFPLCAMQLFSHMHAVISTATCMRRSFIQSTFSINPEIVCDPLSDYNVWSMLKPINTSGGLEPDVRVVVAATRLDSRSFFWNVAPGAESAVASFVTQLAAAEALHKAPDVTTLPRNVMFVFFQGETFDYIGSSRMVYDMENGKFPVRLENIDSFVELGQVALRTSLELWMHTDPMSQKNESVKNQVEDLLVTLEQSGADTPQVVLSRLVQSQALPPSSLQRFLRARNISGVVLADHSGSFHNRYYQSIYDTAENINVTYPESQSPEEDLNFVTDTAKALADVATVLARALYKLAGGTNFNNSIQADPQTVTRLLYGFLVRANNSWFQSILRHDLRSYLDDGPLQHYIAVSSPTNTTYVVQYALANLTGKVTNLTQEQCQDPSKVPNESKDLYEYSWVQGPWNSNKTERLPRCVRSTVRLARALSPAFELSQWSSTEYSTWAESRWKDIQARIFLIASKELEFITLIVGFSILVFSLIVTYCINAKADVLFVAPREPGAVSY
UniProt P57716, residues 28-708: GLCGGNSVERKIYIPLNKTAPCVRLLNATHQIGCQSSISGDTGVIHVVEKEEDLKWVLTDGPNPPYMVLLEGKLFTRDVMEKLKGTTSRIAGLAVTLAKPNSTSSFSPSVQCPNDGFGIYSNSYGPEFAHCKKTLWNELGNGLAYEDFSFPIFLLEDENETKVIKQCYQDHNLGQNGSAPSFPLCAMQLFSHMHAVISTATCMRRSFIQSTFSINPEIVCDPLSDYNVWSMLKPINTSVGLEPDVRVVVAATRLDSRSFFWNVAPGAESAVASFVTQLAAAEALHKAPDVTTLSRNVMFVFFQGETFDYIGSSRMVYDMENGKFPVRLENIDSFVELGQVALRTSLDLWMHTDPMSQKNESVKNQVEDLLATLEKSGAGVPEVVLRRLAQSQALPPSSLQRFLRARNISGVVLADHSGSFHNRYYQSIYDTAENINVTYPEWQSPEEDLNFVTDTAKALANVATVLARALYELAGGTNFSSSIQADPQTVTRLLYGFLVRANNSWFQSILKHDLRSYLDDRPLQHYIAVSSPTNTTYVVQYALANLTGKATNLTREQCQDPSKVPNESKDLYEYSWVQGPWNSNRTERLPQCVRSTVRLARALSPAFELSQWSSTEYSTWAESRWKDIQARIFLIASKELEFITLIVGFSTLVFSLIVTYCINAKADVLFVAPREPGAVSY

Assays:
[1] = biological target: V5-tagged wild-type Nicastrin (NCT) (UniProt Q92542); assay: co-IP; HEK293 cells transfected for 48 hours; lysed in RIPA buffer 30 minutes at 4°C; immunoprecipitation with anti-Myc (9E10), anti-V5 or anti-Flag antibodies coupled to protein A-agarose; washed three times in PBS pH 7.4; immunoblot; some samples cotransfected with Flag-SGK1-CA or Flag-SGK1-DN
[2] = biological target: Flag-tagged serum- and glucocorticoid-induced protein kinase 1 (SGK1) (UniProt O00141); assay: as above
[3] = biological target: GST-SGK1 (UniProt O00141); assay: pull-down; purified GST-SGK1 immobilised on GSH-agarose, incubated with lysates of HEK293 cells transfected with V5-NCT, 4°C with rotation; beads washed three times in ice-cold PBS; immunoblot with anti-V5; only the target purified
[4] = biological target: endogenous SGK1 of Rat2 fibroblasts (rat (endogenous in Rat2)) (UniProt Q06226); assay: co-IP; endogenous proteins; Rat fibroblast Rat2 cells expressing control siRNA or rSGK1 siRNA, untreated or treated with 1 µM dexamethasone for 24 hours; immunoprecipitation with anti-SGK antibody, immunoblot with anti-NCT antibody
[5] = biological target: endogenous SGK1 of mouse embryonic fibroblasts (mouse (endogenous in MEF)) (UniProt Q9WVC6); assay: co-IP; endogenous proteins; MEF cells from SGK1+/+ and SGK1-/- mice lysed, immunoprecipitation with IgG or anti-SGK1 antibody, immunoblot with anti-NCT antibody

Q: “Flag-tagged serum- and glucocorticoid-induced protein kinase 1 (SGK1) (from UniProt O00141 1-431) (enzyme)” was tested. Which binding [1] did it give?
A: binds

Q: What does the source list for “V5-tagged wild-type Nicastrin (NCT) (from UniProt Q92542 34-709)”?
A: binding [2]: binds; binding [3]: binds

Q: For “endogenous Nicastrin (NCT) of Rat2 fibroblasts (from UniProt Q8CGU6 35-708)”, which binding [4] is on record?
A: binds

Q: Which binding [5] does the source give for “endogenous Nicastrin (NCT) of mouse embryonic fibroblasts (from UniProt P57716 28-708)” here?
A: binds
